Experimental data as given in US8501779B2, “Polymorphs of donepezil salts, preparation methods and uses thereof” (priority 2007, dated 2013).

conditions: description of the taste in words

Row | Compound | Taste Test Results: Description
1 | C/C=C/C=C/C(=O)O.COc1cc2c(cc1OC)C(=O)C(CC1CCN(Cc3ccccc3)CC1)C2 (stereo not drawn) [Example 102, Donepezil Sorbate] | highly-bitter
2 | Donepezil Formate [Example 97] | highly-bitter
3 | Donepezil Acetate [Example 100] | highly-bitter
4 | COc1cc2c(cc1OC)C(=O)C(CC1CCN(Cc3ccccc3)CC1)C2.O=C(O)c1cc(O)c(O)c(O)c1 (stereo not drawn) [Example 98, Donepezil Gallate] | non-bitter
5 | CC(=O)Oc1ccccc1C(=O)O.COc1cc2c(cc1OC)C(=O)C(CC1CCN(Cc3ccccc3)CC1)C2 (stereo not drawn) [Example 92, Donepezil Acetylsalicylate] | non-bitter
6 | Donepezil Citrate [Example 95] | sour, highly-bitter
